From article PMC12040169 (PLOS Biology, 2025)
Some of the results follow.

Test system: T1, CTL2-GFP (C. trachomatis L2/434/Bu, GFP-expressing)
T1 construct: L2/434/Bu, GFP-expressing
Set-up: species or system HeLa; Intracellular C. trachomatis growth in HeLa cells, bulk GFP fluorescence relative to DMSO
Settings: bulk GFP, single well; 28.5 h, 10 µM; inhibitor

SMILES | % of control remaining [%]
Cc1cc(CN(C)Cc2cn(C)c3cc(F)ccc23)n[nH]1 [CBK281710] | 116.534
COC(CNC(=O)Cn1nnnc1CN1CCC(C)CC1)c1cccs1 (stereo not drawn) [CBK306958] | 119.569
CCn1c(=O)n(CCC(=O)NC(C(N)=O)c2ccccc2)c2ccccc21 (stereo not drawn) [CBK295196] | 170.712
Nc1ccc(Oc2nc(Oc3ccc(N)cc3)c(F)c(Oc3ccc(N)cc3)c2F)cc1 [CBK266397C] | 164.377
CCn1ncc2c1CCCC2NC1CCN(c2ccccc2F)C1=O (stereo not drawn) [CBK305279] | 108.65
COc1ccccc1NC(=O)N1C[C@@H]2C[C@H](C1)c1ccc(-c3cncnc3)c(=O)n1C2 [CBK289186] | 126.227
O=C1CC2(CCN(C(=O)C3CCCCC3)CC2)Oc2ccc(F)cc21 [CBK282863] | 91.6909
CCCCC1(COC(C)=O)OC(=O)Nc2ccc(Br)cc21 (stereo not drawn) [CBK010195] | 146.086
O=C(O)C1CCCCC1C(=O)Nc1cccc2ccccc12 (stereo not drawn) [CBK261569] | 100
OCCN(CCO)c1nc(-c2ccccc2)nc2sc(-c3ccccc3)cc12 [CBK265935] | 105.232
COCCNC(=O)CSc1cc(Cl)nc(Cl)c1 [CBK020796] | 116.013
Cc1cc(C)cc(OCC(=O)Nc2c(C#N)c(C)nn2C)c1 [CBK304791] | 113.144
O=C(N[C@H]1CCN2C(=O)c3cc(-c4ccccc4F)ccc3NC(=O)[C@@H]2C1)c1cnccn1 [CBK289558] | 120.449
CS(=O)(=O)N1CC2(CCN(CCc3c[nH]c4ccccc34)CC2)c2ccccc21 [CBK084017T] | 125.387
COc1ccc(C(=O)N2CCC3(CCN(Cc4c(F)cccc4F)C3)C2)cc1OC (stereo not drawn) [CBK132152] | 61.7418
CC(=O)Nc1ccc(-c2ccc(=O)n3c2[C@@H]2C[C@@H](CN(C(=O)c4ccccc4)C2)C3)cc1 [CBK289198] | 111.021
Cc1cc(COc2nc3ccccc3nc2NC[C@@H]2CCCO2)no1 [CBK174027] | 106.771
COc1cccc(OCC(=O)O/N=C(\N)c2ccncc2)c1 [CBK262592] | 100
Cc1[nH]c(=O)[nH]c(=O)c1C(=O)Nc1ccccc1 [CBK116181] | 93.6779
CN(C)c1ccc(C(=O)N2CCN3C(=O)[C@H](Cc4ccc(F)cc4)NC(=O)[C@H]3C2)cc1 [CBK289601] | 96.1571
CCCCSc1nc(N)cc(N2CCC(C(=O)NCC)C2)n1 (stereo not drawn) [CBK306880] | 87.1163

Random excerpt: 2 entries already listed
SMILES | % of control remaining [%]
O=C(N[C@H]1CCN2C(=O)c3cc(-c4ccccc4F)ccc3NC(=O)[C@@H]2C1)c1cnccn1 [CBK289558] | 120.449
CCn1ncc2c1CCCC2NC1CCN(c2ccccc2F)C1=O (stereo not drawn) [CBK305279] | 108.65
